The target in assay [1] is T1, FOXA2 (lentiviral, in LuNE cells) (human) (UniProt Q9Y261).
T1 sequence: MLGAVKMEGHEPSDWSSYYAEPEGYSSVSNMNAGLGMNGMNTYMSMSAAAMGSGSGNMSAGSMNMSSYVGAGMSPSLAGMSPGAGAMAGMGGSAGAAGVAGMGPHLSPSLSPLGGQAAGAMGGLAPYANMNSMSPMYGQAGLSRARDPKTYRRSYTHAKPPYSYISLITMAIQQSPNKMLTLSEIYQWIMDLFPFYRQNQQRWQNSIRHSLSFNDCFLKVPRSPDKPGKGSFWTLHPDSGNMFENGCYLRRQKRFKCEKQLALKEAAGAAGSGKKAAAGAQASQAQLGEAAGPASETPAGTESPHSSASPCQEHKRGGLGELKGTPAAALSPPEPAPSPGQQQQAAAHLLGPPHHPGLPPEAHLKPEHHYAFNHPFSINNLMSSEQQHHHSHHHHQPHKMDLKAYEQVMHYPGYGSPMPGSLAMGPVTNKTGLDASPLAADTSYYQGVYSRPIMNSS
The assay can be described thus: affinity purification with mass spectrometry.

Protein sequences, listed by entry. Tags and fused reporters are not part of them.
UniProt Q92793: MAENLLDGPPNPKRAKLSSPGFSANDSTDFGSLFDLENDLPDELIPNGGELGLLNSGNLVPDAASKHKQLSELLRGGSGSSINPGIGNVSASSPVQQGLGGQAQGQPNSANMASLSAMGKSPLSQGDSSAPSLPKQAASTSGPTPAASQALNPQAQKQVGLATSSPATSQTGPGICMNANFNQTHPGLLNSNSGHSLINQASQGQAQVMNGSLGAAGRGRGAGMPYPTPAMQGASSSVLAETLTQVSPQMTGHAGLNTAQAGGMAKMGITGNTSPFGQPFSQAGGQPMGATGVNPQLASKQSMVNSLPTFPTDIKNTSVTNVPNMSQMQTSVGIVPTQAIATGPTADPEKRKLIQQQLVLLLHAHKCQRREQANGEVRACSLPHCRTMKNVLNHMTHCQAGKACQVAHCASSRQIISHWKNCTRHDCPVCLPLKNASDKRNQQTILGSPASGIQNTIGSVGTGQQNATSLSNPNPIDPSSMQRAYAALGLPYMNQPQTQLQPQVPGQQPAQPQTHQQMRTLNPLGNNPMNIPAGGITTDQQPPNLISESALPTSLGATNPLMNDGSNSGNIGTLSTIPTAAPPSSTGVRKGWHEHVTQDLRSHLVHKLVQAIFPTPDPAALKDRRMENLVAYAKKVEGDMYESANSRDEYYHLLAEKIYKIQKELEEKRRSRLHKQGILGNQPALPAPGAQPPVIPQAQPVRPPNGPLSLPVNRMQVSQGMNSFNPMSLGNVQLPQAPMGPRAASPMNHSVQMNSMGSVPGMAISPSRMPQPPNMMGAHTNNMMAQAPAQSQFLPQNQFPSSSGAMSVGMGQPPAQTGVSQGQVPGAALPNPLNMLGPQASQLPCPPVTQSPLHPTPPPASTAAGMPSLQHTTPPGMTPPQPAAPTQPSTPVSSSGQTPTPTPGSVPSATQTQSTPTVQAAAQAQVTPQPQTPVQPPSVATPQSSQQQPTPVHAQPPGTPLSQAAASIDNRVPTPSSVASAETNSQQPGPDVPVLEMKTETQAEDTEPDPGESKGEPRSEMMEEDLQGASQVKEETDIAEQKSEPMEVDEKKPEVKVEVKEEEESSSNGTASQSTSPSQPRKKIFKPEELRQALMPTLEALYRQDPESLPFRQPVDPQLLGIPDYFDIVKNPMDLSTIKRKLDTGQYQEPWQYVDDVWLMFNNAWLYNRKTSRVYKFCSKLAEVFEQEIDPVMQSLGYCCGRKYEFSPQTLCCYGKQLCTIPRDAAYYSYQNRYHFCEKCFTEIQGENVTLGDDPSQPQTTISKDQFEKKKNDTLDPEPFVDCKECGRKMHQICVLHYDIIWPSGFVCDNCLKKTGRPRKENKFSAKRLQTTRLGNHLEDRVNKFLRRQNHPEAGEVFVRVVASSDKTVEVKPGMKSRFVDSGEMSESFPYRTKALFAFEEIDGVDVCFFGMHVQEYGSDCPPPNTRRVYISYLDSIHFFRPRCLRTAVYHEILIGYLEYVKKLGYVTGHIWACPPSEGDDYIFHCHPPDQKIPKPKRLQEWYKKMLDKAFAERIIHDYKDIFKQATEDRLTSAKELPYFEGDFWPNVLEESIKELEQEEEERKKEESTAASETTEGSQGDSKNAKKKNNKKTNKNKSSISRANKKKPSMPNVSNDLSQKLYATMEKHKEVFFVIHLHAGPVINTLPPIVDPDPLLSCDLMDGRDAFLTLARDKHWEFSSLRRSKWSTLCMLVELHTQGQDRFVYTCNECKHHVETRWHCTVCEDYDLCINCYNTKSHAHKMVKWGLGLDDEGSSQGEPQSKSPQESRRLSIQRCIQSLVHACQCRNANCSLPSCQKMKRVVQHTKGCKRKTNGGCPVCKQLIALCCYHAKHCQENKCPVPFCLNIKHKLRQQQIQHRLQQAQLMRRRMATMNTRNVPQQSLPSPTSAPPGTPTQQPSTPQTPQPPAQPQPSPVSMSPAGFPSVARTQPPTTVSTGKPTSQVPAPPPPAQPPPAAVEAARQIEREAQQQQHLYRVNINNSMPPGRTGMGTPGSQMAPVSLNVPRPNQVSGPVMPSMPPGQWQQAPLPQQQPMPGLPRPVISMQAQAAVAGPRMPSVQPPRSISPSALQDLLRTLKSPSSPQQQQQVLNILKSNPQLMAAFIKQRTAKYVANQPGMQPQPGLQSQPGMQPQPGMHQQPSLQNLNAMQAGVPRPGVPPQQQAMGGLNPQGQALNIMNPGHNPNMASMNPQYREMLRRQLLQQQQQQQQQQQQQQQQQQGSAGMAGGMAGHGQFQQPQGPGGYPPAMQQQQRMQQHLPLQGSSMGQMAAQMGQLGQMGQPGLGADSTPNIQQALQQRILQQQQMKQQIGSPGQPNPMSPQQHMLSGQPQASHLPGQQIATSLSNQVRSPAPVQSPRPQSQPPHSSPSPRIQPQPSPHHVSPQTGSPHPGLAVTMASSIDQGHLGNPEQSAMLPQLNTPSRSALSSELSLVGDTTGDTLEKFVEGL

The target in assay [2] is T2, FOXA2 (lentiviral, in LuNE cells) (human), Q9Y261.
T2 chain: T1 sequence
In words: affinity purification with mass spectrometry. To be noted: remark: other sources report otherwise.

These are yes or no findings as the source states them, for the method shown. In cells and extracts the contact can be indirect. These calls come from enrichment with a bait or labelling near it, and not all partners need be listed.

As for “CREBBP (CBP) (from UniProt Q92793 1-2442) (enzyme)”, in assay [1], the binding entry is reported as “binds”.

B1: NKX2-1, P43699 1-371 (protein)
chain: MSMSPKHTTPFSVSDILSPLEESYKKVGMEGGGLGAPLAAYRQGQAAPPTAAMQQHAVGHHGAVTAAYHMTAAGVPQLSHSAVGGYCNGNLGNMSELPPYQDTMRNSASGPGWYGANPDPRFPAISRFMGPASGMNMSGMGGLGSLGDVSKNMAPLPSAPRRKRRVLFSQAQVYELERRFKQQKYLSAPEREHLASMIHLTPTQVKIWFQNHRYKMKRQAKDKAAQQQLQQDSGGGGGGGGTGCPQQQQAQQQSPRRVAVPVLVKDGKPCQAGAPAPGAASLQGHAQQQAQHQAQAAQAAAAAISVGSGGAGLGAHPGHQPGSAGQSPDLAHHAASPAALQGQVSSLSHLNSSGSDYGTMSCSTLLYGRTW
As for B1, the binding entry in assay [2] was “binds”.
